Results published in patent publication US7432306B2, “Method for preparing novel transcription factors and use” (NRL Pharma, Inc., priority 2005, dated 2008).

Legend:
ICR male mice = assay: Mouse serum cholesterol lowering action; assay type: in vivo; conditions: one week
Protocol: Thirty 5-week-old ICR male mice were bred by allowing mouse standard feed and water ad libitum. The mice were randomly classified into three groups, and one group was taken as a control group to which no drug was administered, and feed containing 0.1% of 4-O-methylasco-chlorin diethylacetal (MAC-DEA) and feed containing 0.05% of MAC-DEA were given to the other two groups, respectively. The body weight, the intake of feed and the amount of drinking water were measured every other day. One week after giving feed, blood was collected and the total cholesterol in serum and the neutral fat were determined.

db/db mice = assay: Action of MAC-DEA on db/db mouse; assay type: in vivo
Protocol: Eighteen 7-week-old male db/db mice were bred for one week by allowing mouse standard feed and water ad libitum. The mice were randomly classified into three groups of six mice and each group was housed in a urine collection rat cage and the intake of feed, the amount of drinking water, the amount of urine and the amount of urine sugar excreted were determined everyday. Feed CE-2 was given to the first group as a control group, and feed CE-2 mixed with 0.05% of 4-O-methylascochlorin diethylacetal (MAC-DEA) and feed CE-2 mixed with 0.1% of MAC-DEA were given to the second group and the third group, respectively. The mice were allowed feed and drinking water ad libitum and on the 7th day, blood was collected and the blood sugar, the serum neutral fat and the serum insulin were determined.

[1] = system: Ehrlich ascites carcinoma; assay: Inhibition of Ehrlich solid tumor; assay type: in vivo, mouse; conditions: 7 days, 21st day
Protocol: Eighteen five-week-old ICR male mice were subcutaneously inoculated with 10^6 cells of Ehrlich ascites carcinoma […] and after 24 hours, and the mice were classified into three groups of six mice, and 4-O-methylascochlorin diethylacetal (MAC-DE) was suspended in 0.2% Tween-80 and 1 mg/kg and 4 mg/kg were orally administered to the first group and the second group twice a day at 9:00 and 20:00, respectively, and a MAC-DE-free Tween-80 aqueous solution was given to the third group as a control group. The administration was continued for successive 7 days and after completion of the administration, the mice were fed for two weeks. On the 21st day, a nodular tumor was removed from the mice and the body weight was determined and the effect of MAC-DE on the inhibition of tumor growth was examined.

## CCOC(OCC)c1c(C)c(Cl)c(OC)c(C/C=C(C)/C=C/[C@@]2(C)[C@H](C)CCC(=O)[C@@H]2C)c1O [MAC-DEA, 4-O-methylascochlorin diethylacetal]
ICR male mice; 0.05% in feed
  Increase in Body Weight: 7.1 g/mouse
ICR male mice; 0.1% in feed
  Increase in Body Weight: 6.9 g/mouse
db/db mice; 0.05% in feed CE-2, db/db mice
  Increase in Weight: 5.0 g/mouse
  Intake of Feed: 6.9 g/mouse
db/db mice; 0.1% in feed CE-2, db/db mice
  Increase in Weight: 4.8 g/mouse
  Intake of Feed: 6.4 g/mouse
[1]; 1 mg/kg oral twice a day
  Increase in Body Weight: 10.8 g/mouse
[1]; 4 mg/kg oral twice a day
  Increase in Body Weight: 9.2 g/mouse
